According to the supplement of paper PMC10331698:
± gives the standard deviation of the averaged measurements. Most entries show no effect beyond the scatter of the controls.

Experiments:
Experiment in all cases: level (log10 ratio to DMSO vehicle control); higher = higher biomarker level / cell amount than vehicle control
[1] = compound: O=C(O)C(F)(F)C(F)(F)C(F)(F)C(F)(F)C(F)(F)C(F)(F)F [Perfluoroheptanoic acid]; settings: in DMSO
Procedure: (§1)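 BioMAP Diversity Plus panel of 12 human primary cell co-culture systems (3C, 4H, LPS, SAg, BT, BF4T, BE3C, CASM3C, HDF3CGF, KF3CT, MyoF, Mphg). Compounds were added 1 h before stimulation and left for 24 h (MyoF 48 h; BT 72 h for soluble read-outs or 6 d for IgG). Biomarkers were read by ELISA, cytotoxicity by SRB, PBMC viability and proliferation by Alamar Blue. Each well value was divided by the mean of 8 DMSO control wells on the same plate and log10 transformed; duplicate blinded samples were tested at 4 concentrations.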

[2] = compound: FC(F)(F)C(F)(F)C(F)(F)C(F)(F)C(F)(F)C(F)(F)CC1CO1 [3-(Perfluorohexyl)-1,2-epoxypropane]; settings: 2200 nM; in DMSO
Procedure: as §1

[3] = compound: NCC(F)(F)C(F)(F)C(F)(F)C(F)(F)C(F)(F)C(F)(F)C(F)(F)F [1H,1H-Perfluorooctylamine]; settings: 2200 nM; in DMSO
Procedure: as §1

[4] = compound: CCCCCCCCC(F)(F)C(F)(F)C(F)(F)C(F)(F)C(F)(F)C(F)(F)F [1-(Perfluorohexyl)octane]; settings: in DMSO
Procedure: as §1

[5] = compound: Cc1ccc(S(=O)(=O)OCC(F)(F)C(F)(F)C(F)(F)C(F)(F)C(F)(F)C(F)F)cc1 [1H,1H,7H-Perfluoroheptyl 4-methylbenzenesulfonate]; settings: 2200 nM; in DMSO
Procedure: as §1

[6] = compound: CCN(CCO)S(=O)(=O)C(F)(F)C(F)(F)C(F)(F)C(F)(F)C(F)(F)C(F)(F)C(F)(F)C(F)(F)F [N-Ethyl-N-(2-hydroxyethyl)perfluorooctanesulfonamide]; settings: in DMSO
Procedure: as §1

[7] = compound: OCC(F)(F)C(F)(F)C(F)(F)F [1H,1H-Heptafluorobutanol]; settings: 2200 nM; in DMSO
Procedure: as §1

[8] = compound: O=C(O)C(F)(F)C(F)(F)C(F)(F)C(F)(F)C(=O)O [Octafluoroadipic acid]; settings: 2200 nM; in DMSO
Procedure: as §1

[9] = compound: NC(=O)C(F)(F)C(F)(F)C(F)(F)F [Heptafluorobutyramide]; settings: 2200 nM; in DMSO
Procedure: as §1

[10] = compound: O=S(=O)(O)CCC(F)(F)C(F)(F)C(F)(F)C(F)(F)C(F)(F)C(F)(F)C(F)(F)C(F)(F)F [8:2 Fluorotelomer sulfonic acid]; settings: in DMSO
Procedure: as §1

[11] = compound: O=C(O)C(F)(F)C(F)(F)C(F)(F)C(F)(F)C(F)(F)C(F)(F)C(F)(F)C(F)(F)C(F)(F)C(F)F [11-H-Perfluoroundecanoic acid]; settings: 2200 nM; in DMSO
Procedure: as §1

[12] = compound: O=C(O)C(F)(F)C(F)(F)C(F)(F)OC(F)(F)F [Perfluoro(4-methoxybutanoic) acid]; settings: 2200 nM; in DMSO
Procedure: as §1

[13] = compound: OCCC(F)(F)C(F)(F)C(F)(F)C(F)(F)C(F)(F)C(F)(F)F [6:2 Fluorotelomer alcohol]; settings: 2200 nM; in DMSO
Procedure: as §1

[14] = compound: O=C(O)C(F)(F)C(F)(F)C(F)(F)C(F)(F)F [Perfluoropentanoic acid]; settings: in DMSO
Procedure: as §1

[15] = compound: CN(C(=O)C(F)(F)C(F)(F)C(F)(F)F)[Si](C)(C)C [N-Methyl-N-trimethylsilylheptafluorobutyramide]; settings: 2200 nM; in DMSO
Procedure: as §1

[16] = compound: CC(C)(C)C(=O)CC(=O)C(F)(F)C(F)(F)C(F)(F)F [(Heptafluorobutanoyl)pivaloylmethane]; settings: 2200 nM; in DMSO
Procedure: as §1

Test System	level (log10) ([1]; 2200 nM)	level (log10) ([1]; 6700 nM)	level (log10) ([1]; 20000 nM)	level (log10) ([1]; 60000 nM)	level (log10) [2]	level (log10) [3]	level (log10) ([4]; 740 nM)	level (log10) ([4]; 2200 nM)	level (log10) [5]	level (log10) ([6]; 2200 nM)	level (log10) ([6]; 6700 nM)	level (log10) ([6]; 20000 nM)	level (log10) [7]	level (log10) [8]	level (log10) [9]	level (log10) ([10]; 2200 nM)	level (log10) ([10]; 6700 nM)	level (log10) ([10]; 20000 nM)	level (log10) ([10]; 60000 nM)	level (log10) [11]	level (log10) [12]	level (log10) [13]	level (log10) ([14]; 2200 nM)	level (log10) ([14]; 6700 nM)	level (log10) ([14]; 20000 nM)	level (log10) ([14]; 60000 nM)	level (log10) [15]	level (log10) [16]
MyoF:CXCL8/IL-8	0.01 ± 0.023	0.002 ± 0.0042	0.0205 ± 0.005	0.0175 ± 0.035	-0.0075 ± 0.013	0.012 ± 0.013	0.0145 ± 0.021	0.0145 ± 0.016	0.0145 ± 0.03	-0.028 ± 0.0028	-0.193 ± 0.011	-0.12 ± 0.022	-0.007 ± 0.034	-0.0095 ± 0.005	0.012 ± 0.042	-0.05 ± 0.011	-0.0085 ± 0.03	-0.0885 ± 0.046	-0.157 ± 0.016	0.0015 ± 0.0021	0.0155 ± 0.049	0.002 ± 0.027	0.012 ± 0.042	-0.008 ± 0.02	0.01 ± 0.0071	0.024 ± 0.014	0.002 ± 0.0099	0.0325 ± 0.066
MyoF:Collagen I	0.0125 ± 0.028	-0.0225 ± 0.011	-0.006	0.0055 ± 0.043	0.011 ± 0.031	0.0035 ± 0.016	0.0085 ± 0.012	0.0155 ± 0.013	-0.0025 ± 0.018	0.0225 ± 0.0064	0.042 ± 0.0028	-0.155 ± 0.029	-0.0075 ± 0.018	-0.0075 ± 0.018	0.0035 ± 0.011	0.0085 ± 0.023	0.004 ± 0.0042	-0.0265 ± 0.026	-0.024 ± 0.0071	-0.022 ± 0.024	-0.015 ± 0.0042	0.0105 ± 0.033	-0.0095 ± 0.0035	-0.0065 ± 0.0092	-0.008 ± 0.0085	0.0065 ± 0.015	0.0135 ± 0.025	-0.014 ± 0.013
MyoF:Collagen III	-0.003 ± 0.023	-0.013 ± 0.018	-0.011 ± 0.018	-0.0055 ± 0.0078	0.0065 ± 0.018	-0.002 ± 0.0028	-0.0025 ± 0.026	0.0065 ± 0.0035	-0.0075 ± 0.012	-0.005 ± 0.027	-0.0045 ± 0.022	-0.228 ± 0.17	0.004 ± 0.0028	0.0025 ± 0.015	-0.0065 ± 0.026	-0.0145 ± 0.035	-0.008 ± 0.017	-0.04 ± 0.031	-0.0355 ± 0.023	-0.0215 ± 0.019	-0.0055 ± 0.005	-0.004 ± 0.018	-0.009 ± 0.016	-0.001 ± 0.0028	0.0055 ± 0.0021	-0.001 ± 0.0085	-0.0065 ± 0.011	-0.009 ± 0.0071
MyoF:Collagen IV	0.012 ± 0.071	-0.0175 ± 0.022	-0.014 ± 0.013	0.0305 ± 0.07	0.0335 ± 0.049	0.0015 ± 0.011	0.031 ± 0.025	0.017	0.0225 ± 0.005	-0.0075 ± 0.016	-0.0665 ± 0.013	0.078 ± 0.035	-0.028 ± 0.0014	0.027 ± 0.034	0.007 ± 0.055	-0.0035 ± 0.047	-0.0215 ± 0.019	-0.0335 ± 0.036	0.005 ± 0.0099	0.022 ± 0.016	0.013 ± 0.047	0.0155 ± 0.026	-0.028 ± 0.0071	-0.007 ± 0.025	-0.012 ± 0.016	-0.0025 ± 0.023	0.0285 ± 0.036	-0.048 ± 0.018
